According to article doi:10.1101/127514:
No constants are given. Whether binding was seen depends on the method and setting. Some entries that bind do so weakly or less than the wild type.

Sequences of proteins named here, by UniProt entry; tags and fusion partners are left off.
UniProt P21730: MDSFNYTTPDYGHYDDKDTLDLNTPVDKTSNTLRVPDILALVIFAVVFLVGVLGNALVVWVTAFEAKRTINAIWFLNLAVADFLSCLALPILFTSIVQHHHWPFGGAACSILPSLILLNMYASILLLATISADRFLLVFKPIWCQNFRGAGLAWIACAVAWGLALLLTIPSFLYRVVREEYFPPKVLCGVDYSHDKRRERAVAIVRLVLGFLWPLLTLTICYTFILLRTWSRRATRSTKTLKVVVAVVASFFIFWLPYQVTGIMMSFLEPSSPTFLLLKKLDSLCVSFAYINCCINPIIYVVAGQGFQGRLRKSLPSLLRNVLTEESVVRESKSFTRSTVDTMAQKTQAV

Target: human C5a receptor with C-terminal mGFP, on HEK cells (human) (UniProt P21730)
Test: flow cytometry on cells

## wild type LukS (from UniProt O80066 29-312)
  binding: binds
